Assay results: paper PMC12024814, “Ruthenium(II)–Arene Complexes with a 2,2′-Bipyridine Ligand as Anti-Aβ Agents” (Biomolecules, 2025)

Legend:
[1] = Average of rankings over all experimental methods; conditions: average of the ThT, DLS, TEM, HSA and cytotoxicity rankings (1 = best, 5 = worst)
[2] = Imidazole coordination by 1H NMR; conditions: equimolar imidazole, 37 °C, DMSO-D6/D2O; RuBtB in pure CDCl3

Compound | Ranking Average [1] | 1H NMR changes with imidazole (coordination) [2]
Cc1ccc(C(C)C)cc1.F[P-](F)(F)(F)(F)F.[Cl-].[Ru+2].c1ccc(-c2ccccn2)nc1 [RuB, [Ru(η^6-p-cymene)(2,2′-bipyridine)Cl]PF6] | 2.8 | –
Cc1ccc(C(C)C)cc1.Cc1ccnc(-c2cc(C)ccn2)c1.F[P-](F)(F)(F)(F)F.[Cl-].[Ru+2] [RuBMe, [Ru(η^6-p-cymene)(4,4′-dimethyl-2,2′-bipyridine)Cl]PF6] | 3 | –
[Ru(η^6-p-cymene)(4,4′-di-tert-butyl-2,2′-bipyridine)Cl]PF6 [RuBtB] | 3.6 | no changes were observed
[Ru(η^6-p-cymene)(4,4′-diamino-2,2′-bipyridine)Cl]PF6 [RuBA] | 2.4 | new signals within the aromatic region
[Ru(η^6-p-cymene)(4,4′-dimethoxy-2,2′-bipyridine)Cl]PF6 [RuBMeO] | 3.2 | –
